Data taken from article PMC11633172.

Key:
[1] = target: T1, EIN_066100 (MAK16 homolog) (Entamoeba invadens (IP-1)) (UniProt A0A0A1TXQ0); assay: EMSA supershift; conditions: anti-Myc supershift, stronger than for EIN_085620, anti-actin gave none, poly(dI-dC); 20 uL with 2 uL 10x EMSA buffer (10 mM Tris-HCl pH 7.9, 50 mM NaCl, 1 mM EDTA, 3% glycerol, 0.05% BSA), 6 ug nuclear extract, 1 ug/uL poly(dI-dC), 50 fmol probe; protein in an extract; protein details: Myc; label: radiolabeled
T1 sequence (looked up, limits assumed): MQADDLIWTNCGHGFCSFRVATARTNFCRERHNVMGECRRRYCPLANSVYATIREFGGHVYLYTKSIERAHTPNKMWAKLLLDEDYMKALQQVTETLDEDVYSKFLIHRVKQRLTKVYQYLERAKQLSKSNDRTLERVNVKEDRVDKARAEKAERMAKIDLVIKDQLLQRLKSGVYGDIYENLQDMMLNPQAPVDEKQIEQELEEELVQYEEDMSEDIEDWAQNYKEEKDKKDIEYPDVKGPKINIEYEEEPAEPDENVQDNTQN

[2] = tested on: EIN_085620 (Esf2 homolog, RRM protein) (Entamoeba invadens (IP-1)); assay: EMSA supershift; conditions: anti-Myc supershift, less strong than for EIN_066100, anti-actin gave none, poly(dI-dC); 20 uL with 2 uL 10x EMSA buffer (10 mM Tris-HCl pH 7.9, 50 mM NaCl, 1 mM EDTA, 3% glycerol, 0.05% BSA), 6 ug nuclear extract, 1 ug/uL poly(dI-dC), 50 fmol probe; protein in an extract; protein details: Myc; label: radiolabeled

ACGTCAGTTTTTTCACTTTCTTTTCAGT / ACGTACTGAAAAGAAAGTGAAAAAACTG [M9 WT probe]
binding result [1]: binds | binding result [2]: binds

For at least one entry, the source does not settle the construct or the ends of the probe. Where cells or extracts were used, other partners may take part. For some assays here: Where a protein sequence is shown, tags need not be part of it.
